# Test results taken from the supplement of paper PMC12819154, “High-throughput peptide-centric local stability assay extends protein–ligand identification to membrane proteins, tissues and bacteria” (Nature Structural & Molecular Biology, 2025).
# Amino acid sequences for entries named in this document (tags omitted). A change or cut given only in a name is not applied to a line headed by its entry.
# UniProt Q9H6S1, whole entry: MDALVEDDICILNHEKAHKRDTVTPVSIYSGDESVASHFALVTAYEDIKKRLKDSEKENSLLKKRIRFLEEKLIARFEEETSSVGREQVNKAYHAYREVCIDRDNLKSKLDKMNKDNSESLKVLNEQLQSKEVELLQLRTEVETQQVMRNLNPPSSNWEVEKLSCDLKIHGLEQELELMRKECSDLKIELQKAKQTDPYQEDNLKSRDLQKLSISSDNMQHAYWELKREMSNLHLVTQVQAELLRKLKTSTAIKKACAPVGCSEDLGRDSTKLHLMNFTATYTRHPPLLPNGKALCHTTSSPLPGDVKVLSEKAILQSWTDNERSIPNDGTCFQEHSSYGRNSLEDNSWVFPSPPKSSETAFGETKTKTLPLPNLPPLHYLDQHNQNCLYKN
# UniProt Q9HAW4: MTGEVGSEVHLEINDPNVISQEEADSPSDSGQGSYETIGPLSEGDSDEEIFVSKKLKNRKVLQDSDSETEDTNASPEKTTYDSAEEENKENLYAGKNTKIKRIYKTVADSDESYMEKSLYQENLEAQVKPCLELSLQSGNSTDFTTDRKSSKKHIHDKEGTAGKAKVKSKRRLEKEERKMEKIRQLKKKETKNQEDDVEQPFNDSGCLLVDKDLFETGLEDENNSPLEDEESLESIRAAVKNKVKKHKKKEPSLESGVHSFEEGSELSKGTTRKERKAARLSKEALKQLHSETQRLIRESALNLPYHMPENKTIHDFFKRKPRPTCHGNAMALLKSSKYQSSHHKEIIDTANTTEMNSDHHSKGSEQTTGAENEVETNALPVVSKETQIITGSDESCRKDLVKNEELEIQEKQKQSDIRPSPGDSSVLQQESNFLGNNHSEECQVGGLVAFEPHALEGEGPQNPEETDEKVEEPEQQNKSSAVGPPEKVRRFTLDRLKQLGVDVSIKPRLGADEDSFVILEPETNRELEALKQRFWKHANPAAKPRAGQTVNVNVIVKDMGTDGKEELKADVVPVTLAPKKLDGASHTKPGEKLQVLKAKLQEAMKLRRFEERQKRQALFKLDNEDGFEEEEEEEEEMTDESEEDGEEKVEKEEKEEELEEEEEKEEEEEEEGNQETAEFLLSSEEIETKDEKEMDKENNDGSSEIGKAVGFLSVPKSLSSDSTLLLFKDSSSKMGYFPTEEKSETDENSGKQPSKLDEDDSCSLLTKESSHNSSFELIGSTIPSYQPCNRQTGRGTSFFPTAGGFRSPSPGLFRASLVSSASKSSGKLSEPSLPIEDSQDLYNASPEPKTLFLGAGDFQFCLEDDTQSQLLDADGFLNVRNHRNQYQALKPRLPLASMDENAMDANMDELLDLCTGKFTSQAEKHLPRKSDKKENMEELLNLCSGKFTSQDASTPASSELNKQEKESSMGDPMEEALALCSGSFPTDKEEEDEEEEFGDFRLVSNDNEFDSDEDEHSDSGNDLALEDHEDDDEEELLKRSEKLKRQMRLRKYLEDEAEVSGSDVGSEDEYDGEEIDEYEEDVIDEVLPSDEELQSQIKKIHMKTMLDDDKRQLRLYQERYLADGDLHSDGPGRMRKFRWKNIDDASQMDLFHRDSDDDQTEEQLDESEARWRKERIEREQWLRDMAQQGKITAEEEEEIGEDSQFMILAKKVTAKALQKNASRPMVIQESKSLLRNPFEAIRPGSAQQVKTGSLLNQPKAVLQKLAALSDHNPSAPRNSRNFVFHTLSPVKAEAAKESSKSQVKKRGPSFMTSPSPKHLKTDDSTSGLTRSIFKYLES
# UniProt Q9NPA8: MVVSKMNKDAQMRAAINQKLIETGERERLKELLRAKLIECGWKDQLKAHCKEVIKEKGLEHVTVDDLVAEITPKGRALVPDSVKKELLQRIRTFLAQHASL
# UniProt Q9HD47: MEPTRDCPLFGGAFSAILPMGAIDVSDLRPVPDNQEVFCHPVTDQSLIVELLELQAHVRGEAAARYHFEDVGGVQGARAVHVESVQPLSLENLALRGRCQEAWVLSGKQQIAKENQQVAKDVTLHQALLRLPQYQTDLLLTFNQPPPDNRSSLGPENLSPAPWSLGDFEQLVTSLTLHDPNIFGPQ
# UniProt Q9NPL8: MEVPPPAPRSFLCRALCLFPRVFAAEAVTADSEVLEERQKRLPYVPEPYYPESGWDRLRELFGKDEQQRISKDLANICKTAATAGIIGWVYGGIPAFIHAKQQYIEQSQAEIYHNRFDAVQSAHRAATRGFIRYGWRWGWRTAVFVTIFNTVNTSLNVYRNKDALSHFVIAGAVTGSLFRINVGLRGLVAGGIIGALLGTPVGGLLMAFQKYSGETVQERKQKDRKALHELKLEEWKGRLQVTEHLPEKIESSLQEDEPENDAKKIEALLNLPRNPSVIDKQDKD
# UniProt Q9H8G1: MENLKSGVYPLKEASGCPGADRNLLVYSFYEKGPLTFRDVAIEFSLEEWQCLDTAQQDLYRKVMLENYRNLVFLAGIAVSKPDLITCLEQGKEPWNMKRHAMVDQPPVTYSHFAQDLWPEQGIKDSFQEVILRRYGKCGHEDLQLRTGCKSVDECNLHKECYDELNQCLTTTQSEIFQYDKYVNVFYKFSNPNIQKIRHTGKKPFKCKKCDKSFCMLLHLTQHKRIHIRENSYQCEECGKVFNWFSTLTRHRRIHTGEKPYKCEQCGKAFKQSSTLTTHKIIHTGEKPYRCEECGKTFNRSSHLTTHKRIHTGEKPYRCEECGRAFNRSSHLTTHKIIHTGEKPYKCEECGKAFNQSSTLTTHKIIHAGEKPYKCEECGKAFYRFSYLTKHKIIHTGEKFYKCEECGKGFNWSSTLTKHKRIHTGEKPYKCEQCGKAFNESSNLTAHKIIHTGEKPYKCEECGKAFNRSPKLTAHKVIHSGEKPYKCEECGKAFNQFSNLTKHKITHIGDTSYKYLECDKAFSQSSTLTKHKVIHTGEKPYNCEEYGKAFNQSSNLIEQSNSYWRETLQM
# UniProt Q9H609: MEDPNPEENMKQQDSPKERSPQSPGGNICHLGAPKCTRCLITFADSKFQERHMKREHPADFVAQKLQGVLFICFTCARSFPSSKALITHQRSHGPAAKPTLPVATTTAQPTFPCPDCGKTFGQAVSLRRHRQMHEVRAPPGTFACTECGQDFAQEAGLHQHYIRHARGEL
# UniProt Q9H765, whole entry: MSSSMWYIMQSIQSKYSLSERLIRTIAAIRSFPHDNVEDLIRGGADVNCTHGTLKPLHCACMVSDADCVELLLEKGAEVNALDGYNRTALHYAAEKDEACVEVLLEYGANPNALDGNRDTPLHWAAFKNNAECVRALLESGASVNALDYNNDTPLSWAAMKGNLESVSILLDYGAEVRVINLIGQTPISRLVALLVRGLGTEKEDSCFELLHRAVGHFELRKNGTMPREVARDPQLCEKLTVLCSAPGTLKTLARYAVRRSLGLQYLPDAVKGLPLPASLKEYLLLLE
# UniProt Q9H8H0: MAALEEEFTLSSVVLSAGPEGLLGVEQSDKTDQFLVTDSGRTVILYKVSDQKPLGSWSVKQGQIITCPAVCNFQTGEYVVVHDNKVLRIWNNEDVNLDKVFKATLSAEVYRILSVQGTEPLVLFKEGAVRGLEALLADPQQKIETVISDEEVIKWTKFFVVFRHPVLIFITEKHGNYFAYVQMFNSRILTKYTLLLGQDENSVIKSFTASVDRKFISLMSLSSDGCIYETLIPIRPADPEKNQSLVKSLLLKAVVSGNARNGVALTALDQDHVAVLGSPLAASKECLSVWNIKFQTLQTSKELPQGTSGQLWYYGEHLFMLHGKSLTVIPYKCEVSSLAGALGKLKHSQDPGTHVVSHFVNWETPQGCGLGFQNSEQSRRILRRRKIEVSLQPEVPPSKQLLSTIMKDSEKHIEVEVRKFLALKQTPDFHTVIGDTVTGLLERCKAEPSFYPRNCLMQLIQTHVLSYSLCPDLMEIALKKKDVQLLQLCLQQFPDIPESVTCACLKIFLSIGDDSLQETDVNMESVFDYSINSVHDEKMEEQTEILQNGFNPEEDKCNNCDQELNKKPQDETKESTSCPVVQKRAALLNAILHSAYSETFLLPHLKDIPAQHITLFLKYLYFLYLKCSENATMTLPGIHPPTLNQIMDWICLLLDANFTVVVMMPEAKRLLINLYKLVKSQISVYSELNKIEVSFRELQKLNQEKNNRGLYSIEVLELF
# UniProt Q9H8E8: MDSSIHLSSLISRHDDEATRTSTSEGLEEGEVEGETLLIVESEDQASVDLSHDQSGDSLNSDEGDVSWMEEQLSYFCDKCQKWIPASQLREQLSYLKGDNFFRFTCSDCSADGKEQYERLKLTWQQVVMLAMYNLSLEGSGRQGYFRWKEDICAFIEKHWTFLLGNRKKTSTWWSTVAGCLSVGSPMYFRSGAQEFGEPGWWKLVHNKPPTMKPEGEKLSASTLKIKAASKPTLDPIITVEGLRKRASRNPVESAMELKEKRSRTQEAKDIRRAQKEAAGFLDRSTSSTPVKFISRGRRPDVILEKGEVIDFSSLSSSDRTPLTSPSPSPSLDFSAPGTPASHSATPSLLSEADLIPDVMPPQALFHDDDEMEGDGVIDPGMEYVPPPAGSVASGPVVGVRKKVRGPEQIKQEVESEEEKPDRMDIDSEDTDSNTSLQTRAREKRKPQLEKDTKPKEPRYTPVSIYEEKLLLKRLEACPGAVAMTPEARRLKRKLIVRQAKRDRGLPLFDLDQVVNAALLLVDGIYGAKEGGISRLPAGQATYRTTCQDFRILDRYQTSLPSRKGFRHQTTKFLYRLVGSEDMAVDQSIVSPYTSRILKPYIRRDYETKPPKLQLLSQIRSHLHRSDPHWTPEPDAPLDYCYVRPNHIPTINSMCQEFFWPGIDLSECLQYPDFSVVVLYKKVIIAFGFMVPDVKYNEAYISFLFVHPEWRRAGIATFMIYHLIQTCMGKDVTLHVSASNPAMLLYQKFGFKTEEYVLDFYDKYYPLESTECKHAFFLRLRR
# UniProt Q9NPJ6: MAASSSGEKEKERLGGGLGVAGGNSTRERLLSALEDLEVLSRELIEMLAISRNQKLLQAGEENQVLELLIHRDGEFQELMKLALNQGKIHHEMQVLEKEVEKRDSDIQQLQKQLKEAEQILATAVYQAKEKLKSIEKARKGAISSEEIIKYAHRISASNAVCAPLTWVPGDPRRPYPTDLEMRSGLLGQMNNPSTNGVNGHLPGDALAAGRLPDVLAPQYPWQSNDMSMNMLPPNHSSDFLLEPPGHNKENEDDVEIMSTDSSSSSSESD
# UniProt Q9NP74: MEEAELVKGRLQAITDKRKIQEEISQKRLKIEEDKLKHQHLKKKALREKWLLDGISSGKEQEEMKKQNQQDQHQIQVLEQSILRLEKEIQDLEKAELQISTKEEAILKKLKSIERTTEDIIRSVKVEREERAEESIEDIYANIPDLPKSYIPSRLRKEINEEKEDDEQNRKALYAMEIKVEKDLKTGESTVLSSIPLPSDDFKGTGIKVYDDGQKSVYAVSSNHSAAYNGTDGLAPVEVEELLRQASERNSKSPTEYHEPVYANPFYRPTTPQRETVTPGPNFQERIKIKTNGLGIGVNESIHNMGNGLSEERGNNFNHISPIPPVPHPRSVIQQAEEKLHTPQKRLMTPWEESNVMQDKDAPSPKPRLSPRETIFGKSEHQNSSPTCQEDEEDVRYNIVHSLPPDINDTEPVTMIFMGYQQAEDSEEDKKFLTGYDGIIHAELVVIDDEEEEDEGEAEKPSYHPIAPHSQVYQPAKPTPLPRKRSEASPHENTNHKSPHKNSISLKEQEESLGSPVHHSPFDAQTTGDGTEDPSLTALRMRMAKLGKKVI
# UniProt Q9HAB8: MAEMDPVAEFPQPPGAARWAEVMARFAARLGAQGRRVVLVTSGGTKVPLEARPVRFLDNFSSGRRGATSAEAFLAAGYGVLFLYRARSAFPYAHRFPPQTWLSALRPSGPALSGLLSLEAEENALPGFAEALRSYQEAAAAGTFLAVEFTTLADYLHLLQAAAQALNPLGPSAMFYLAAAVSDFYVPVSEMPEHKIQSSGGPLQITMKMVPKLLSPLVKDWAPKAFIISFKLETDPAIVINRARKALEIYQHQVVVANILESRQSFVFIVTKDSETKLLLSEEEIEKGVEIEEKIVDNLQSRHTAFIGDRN
# UniProt Q9NPQ8: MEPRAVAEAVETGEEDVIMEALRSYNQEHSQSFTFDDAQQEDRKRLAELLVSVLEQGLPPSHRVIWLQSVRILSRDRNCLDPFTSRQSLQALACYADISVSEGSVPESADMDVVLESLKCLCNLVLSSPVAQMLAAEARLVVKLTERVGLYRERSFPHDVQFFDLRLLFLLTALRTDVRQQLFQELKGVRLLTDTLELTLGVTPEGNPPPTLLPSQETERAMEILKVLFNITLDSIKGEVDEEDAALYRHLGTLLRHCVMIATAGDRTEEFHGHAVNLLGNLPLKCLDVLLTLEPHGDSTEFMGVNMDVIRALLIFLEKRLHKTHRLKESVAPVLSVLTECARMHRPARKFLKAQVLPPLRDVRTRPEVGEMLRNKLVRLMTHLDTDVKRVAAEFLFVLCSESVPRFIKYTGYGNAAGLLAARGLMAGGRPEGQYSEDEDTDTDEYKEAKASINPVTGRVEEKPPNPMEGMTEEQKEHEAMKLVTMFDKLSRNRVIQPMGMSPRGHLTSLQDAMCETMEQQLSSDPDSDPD
# The list shows a part of the results. Most values lie at the level of the controls, where differences are scatter.
# Compound: CN[C@@H]1C[C@H]2O[C@@](C)([C@@H]1OC)n1c3ccccc3c3c4c(c5c6ccccc6n2c5c31)C(=O)NC4 [staurosporine]
# Test: log2 fold change of tryptic peptide abundance, ligand vs vehicle (limited proteolysis) (log2 ratio); higher = more trypsin-susceptible (destabilized)
# Settings: ligand concentration: 20 uM; sample: K562 cleared lysate; digestion: 4 min, 22 C (HT-PELSA RT4min, Orbitrap Astral)
row,Target,log2 fold change
1,"TBC1D17 (peptide sequence: MEGAGYRVVFEKGGVYLHTSAK, peptide start residue: 1) (UniProt Q9HA65)",0.152
2,"GPBP1L1 (peptide sequence: NLVPKPVPPPSKPNAWK, peptide start residue: 237) (UniProt Q9HC44)",0.143
3,"COQ10B (peptide sequence: ITAPLINK, peptide start residue: 67) (UniProt Q9H8M1)",0.313
4,"RTN4 (peptide sequence: SDEGHPFR, peptide start residue: 1067) (UniProt Q9NQC3)",0.128
5,"AZI2 (peptide sequence: EVCIDRDNLK, peptide start residue: 98) (UniProt Q9H6S1)",0.363
6,"CLSPN (peptide sequence: RGPSFMTSPSPK, peptide start residue: 1307) (UniProt Q9HAW4)",0.465
7,"NRIP3 (peptide sequence: DSADLLPLDGLKK, peptide start residue: 39) (UniProt Q9NQ35)",0.466
8,"UniProt Q9NPA8 (peptide sequence: ALVPDSVKK, peptide start residue: 77)",0.186
9,"RANGRF (peptide sequence: DVTLHQALLR, peptide start residue: 121) (UniProt Q9HD47)",-0.152
10,"MLXIP (peptide sequence: AWYMQYLEK, peptide start residue: 169) (UniProt Q9HAP2)",-0.435
11,"UniProt Q9NPL8 (peptide sequence: YSGETVQER, peptide start residue: 212)",-0.35
12,"UniProt Q9H8G1 (peptide sequence: YLECDKAFSQSSTLTK, peptide start residue: 515)",-0.305
13,"COG4 (peptide sequence: YLCLDKSVIELSR, peptide start residue: 161) (UniProt Q9H9E3)",0.425
14,"BCL2L12 (peptide sequence: RLVALLEEEAEVINQK, peptide start residue: 212) (UniProt Q9HB09)",0.257
15,"PLEKHA5 (peptide sequence: VFFINEEAK, peptide start residue: 26) (UniProt Q9HAU0)",-0.218
16,"XAB2 (peptide sequence: AIEVLSDEHAR, peptide start residue: 655) (UniProt Q9HCS7)",-0.212
17,"ZNF576 (peptide sequence: SPQSPGGNICHLGAPK, peptide start residue: 20) (UniProt Q9H609)",0.138
18,"DBNDD1 (peptide sequence: TRAEQSHEKQPLGDPER, peptide start residue: 125) (UniProt Q9H9R9)",0.24
19,"UniProt Q9H765 (peptide sequence: EVARDPQLCEK, peptide start residue: 229)",-0.415

row,Target,log2 fold change
1,"GOLPH3L (peptide sequence: GGILIELAMR, peptide start residue: 77) (UniProt Q9H4A5)",-0.195
2,"NOL11 (peptide sequence: HIEVEVR, peptide start residue: 412) (UniProt Q9H8H0)",-0.227
3,"UniProt Q9H8E8 (peptide sequence: RLEACPGAVAMTPEAR, peptide start residue: 474)",0.23
4,"SEC61A2 (peptide sequence: EQQMVMR, peptide start residue: 396) (UniProt Q9H9S3)",0.185
5,"C12orf4 (peptide sequence: ESLDSGNQNGGNDDKTK, peptide start residue: 385) (UniProt Q9NQ89)",-0.205
6,"MED4 (peptide sequence: IHHEMQVLEK, peptide start residue: 89) (UniProt Q9NPJ6)",0.872
7,"ESF1 (peptide sequence: LAVCNMDWDRLK, peptide start residue: 350) (UniProt Q9H501)",0.778
8,"SENP2 (peptide sequence: LGSGSNGLLR, peptide start residue: 331) (UniProt Q9HC62)",0.238
9,"HEATR1 (peptide sequence: HLEAILTK, peptide start residue: 378) (UniProt Q9H583)",0.797
10,"UniProt Q9H5X1 (peptide sequence: HKLEIYISEGTHSTEEDINK, peptide start residue: 112)",-0.333
11,"PALMD (peptide sequence: EINEEKEDDEQNRK, peptide start residue: 158) (UniProt Q9NP74)",-0.683
12,"PPCS (peptide sequence: LLLSEEEIEKGVEIEEK, peptide start residue: 278) (UniProt Q9HAB8)",0.699
13,"ZFYVE28 (peptide sequence: VCTHCYMFHVTPFYSDK, peptide start residue: 868) (UniProt Q9HCC9)",-0.857
14,"RIC8A (peptide sequence: LLFLLTALR, peptide start residue: 167) (UniProt Q9NPQ8)",-0.212
15,"PPP1R3E (peptide sequence: HVQIQLQR, peptide start residue: 115) (UniProt Q9H7J1)",-0.0911
16,"ACTR8 (peptide sequence: TQAEKGDTENGKEK, peptide start residue: 2) (UniProt Q9H981)",-1.13
17,"REEP4 (peptide sequence: SYETVLSFGK, peptide start residue: 114) (UniProt Q9H6H4)",-0.178
18,"L2HGDH (peptide sequence: LIQQEDIK, peptide start residue: 166) (UniProt Q9H9P8)",0.201

# Random excerpt: 3 entries already listed, in no set order.
row,Target,log2 fold change
13,"ZFYVE28 (peptide sequence: VCTHCYMFHVTPFYSDK, peptide start residue: 868) (UniProt Q9HCC9)",-0.857
14,"RIC8A (peptide sequence: LLFLLTALR, peptide start residue: 167) (UniProt Q9NPQ8)",-0.212
4,"SEC61A2 (peptide sequence: EQQMVMR, peptide start residue: 396) (UniProt Q9H9S3)",0.185
